From patent US8748570B2 (priority 2010, dated 2014)
Several values for one entry are separate records, joined by “and”; a condition that tells them apart may be missing. Equal values may be shown once.

Key:
[1] = general procedure: Fmoc solid-phase peptide synthesis; Fmoc-Thr(tBu)-PEG-PS resin; HBTU/HOBt-DIPEA; conditions: whole synthesis, scale 0.20 mmol
[2] = general procedure: Fmoc solid-phase peptide synthesis; preloaded Fmoc-Thr(tBu)-PEG-PS resin (B-chain); HBTU/HOBt-DIPEA
[3] = general procedure: Fmoc solid-phase peptide synthesis; Fmoc-Asp(OtBu)-Wang resin; HBTU/HOBt-DIPEA; conditions: whole synthesis, scale 100 μmol
[4] = general procedure: Fmoc solid-phase peptide synthesis; Fmoc-β-Asn(OtBu)-Rink Amide resin; HBTU/HOBt-DIPEA; conditions: whole synthesis, scale 100 μmol
[5] = late stage modification step, run 1

For “[B19]-Cys(Acm) Human Insulin Glargine B-Chain 64”, the “crude HPLC purity” value [1] was 48% purity, the “final HPLC purity” value ([2]; whole synthesis) was 96% purity and the isolated yield ([2]; whole synthesis) was 6%.
With “[B19]-Cys(Acm) Human Insulin Lispro B-Chain” the “crude HPLC purity” value [1] was 75%, the crude mass [1] was 630 mg and the “final HPLC purity” value [1] was 94%. For the same substance, the isolated mass [1] was 82 mg and the isolated yield [1] was 12%.
For “c[A6,11]-Dicarba-[A7]-Cys(Pyr)-[A20]-Cys(Acm) Human Insulin Glargine A-Chain 72”, the step yield ([2]; late stage modification step) was 1% and the “final HPLC purity” value [2, 5] was 56% purity and >99% purity.
With “c[Δ^4A6,11]-Dicarba-[A7]-Cys(^tBu)-[A20]-Cys(Acm) Insulin A-Chain ψ9” the “crude HPLC purity” value ([2]; whole synthesis) was 80% purity.
In the case of “c[Δ^46,11]-Dicarba-[7]-Cys(Pyr)[20]-Cys(Acm) Insulin A-Chain 10 [10(I)]”, the “final HPLC purity” value ([2]; late stage modification step) is reported as >99% and the step yield [2, 5] is reported as 4%.
With “c[Δ^46,11]-Dicarba-[7]-Cys(Pyr)[20]-Cys(Acm) Insulin A-Chain 10 [10(II)]” the “final HPLC purity” value ([2]; late stage modification step) was >99%, the step yield [2, 5] was 3% and the step yield ([2]; late stage modification step, run 2) was 34%.
In the case of “desA1-5-[A6,11]-Agl-[A7]-Cys(^tBu)-[A20]-Cys(Acm)-[A21]-Asp Human Insulin A-Chain”, the “crude HPLC purity” value [3] is reported as 70%.
In the case of “desA1-5-[A6,11]-Agl-[A7]-Cys(^tBu)-[A20]-Cys(Acm)-[A21]-β-Asn Human Insulin A-Chain”, the “crude HPLC purity” value [4] is reported as 85%.
